Source: the supplement of paper PMC12823440, “Inhibitors supercharge kinase turnover through native proteolytic circuits” (Nature, 2025)
Where a name gives a salt, the structure may show the parent alone. Some of the results follow. Hit calls seldom repeat between salt and free forms of one compound.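 Kinases were expressed as nanoluciferase fusions in K562 cells and luminescence was read every 4 h between 2 and 18 h as percent of control, DMSO set to 100% and a positive control to 0%. A time point counts as decreased when the signal drops significantly (2 sigma). The hit call is the authors' own, does not follow from the count of time points alone, and its rule is not shown.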

By UniProt entry, the sequences of proteins in these tests, tags left out. Where a name states a change or a piece, a line headed by the entry shows the natural chain unless it says otherwise.
UniProt P00519, whole entry: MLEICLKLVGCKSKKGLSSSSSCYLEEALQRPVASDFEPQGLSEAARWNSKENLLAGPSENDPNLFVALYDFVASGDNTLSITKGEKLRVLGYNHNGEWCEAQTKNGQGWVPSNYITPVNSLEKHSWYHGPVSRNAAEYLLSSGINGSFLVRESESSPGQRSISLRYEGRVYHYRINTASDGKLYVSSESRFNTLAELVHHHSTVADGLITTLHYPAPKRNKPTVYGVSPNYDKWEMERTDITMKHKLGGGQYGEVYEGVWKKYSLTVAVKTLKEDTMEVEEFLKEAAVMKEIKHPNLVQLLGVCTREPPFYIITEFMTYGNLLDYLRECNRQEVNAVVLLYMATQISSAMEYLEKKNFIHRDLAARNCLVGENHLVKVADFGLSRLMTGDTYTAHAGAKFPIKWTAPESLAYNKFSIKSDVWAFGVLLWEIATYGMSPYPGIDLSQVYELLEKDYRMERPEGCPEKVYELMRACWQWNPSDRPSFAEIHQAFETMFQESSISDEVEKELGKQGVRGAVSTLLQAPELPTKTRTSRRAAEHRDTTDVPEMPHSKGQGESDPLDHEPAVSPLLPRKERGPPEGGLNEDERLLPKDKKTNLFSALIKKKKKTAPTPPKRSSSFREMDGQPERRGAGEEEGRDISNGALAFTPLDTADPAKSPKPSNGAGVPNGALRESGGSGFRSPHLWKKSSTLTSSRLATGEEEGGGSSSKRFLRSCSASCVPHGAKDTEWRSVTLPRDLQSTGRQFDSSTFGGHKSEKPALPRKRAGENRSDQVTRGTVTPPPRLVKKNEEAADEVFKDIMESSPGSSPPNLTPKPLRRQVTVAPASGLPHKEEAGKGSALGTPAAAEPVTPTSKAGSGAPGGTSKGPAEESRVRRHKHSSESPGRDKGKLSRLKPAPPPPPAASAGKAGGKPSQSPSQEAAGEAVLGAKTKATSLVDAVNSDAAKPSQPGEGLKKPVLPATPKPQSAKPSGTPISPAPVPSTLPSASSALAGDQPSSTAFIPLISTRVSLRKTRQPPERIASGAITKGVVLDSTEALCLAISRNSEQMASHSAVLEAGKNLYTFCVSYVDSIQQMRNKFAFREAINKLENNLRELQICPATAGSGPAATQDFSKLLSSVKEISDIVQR
UniProt P10398: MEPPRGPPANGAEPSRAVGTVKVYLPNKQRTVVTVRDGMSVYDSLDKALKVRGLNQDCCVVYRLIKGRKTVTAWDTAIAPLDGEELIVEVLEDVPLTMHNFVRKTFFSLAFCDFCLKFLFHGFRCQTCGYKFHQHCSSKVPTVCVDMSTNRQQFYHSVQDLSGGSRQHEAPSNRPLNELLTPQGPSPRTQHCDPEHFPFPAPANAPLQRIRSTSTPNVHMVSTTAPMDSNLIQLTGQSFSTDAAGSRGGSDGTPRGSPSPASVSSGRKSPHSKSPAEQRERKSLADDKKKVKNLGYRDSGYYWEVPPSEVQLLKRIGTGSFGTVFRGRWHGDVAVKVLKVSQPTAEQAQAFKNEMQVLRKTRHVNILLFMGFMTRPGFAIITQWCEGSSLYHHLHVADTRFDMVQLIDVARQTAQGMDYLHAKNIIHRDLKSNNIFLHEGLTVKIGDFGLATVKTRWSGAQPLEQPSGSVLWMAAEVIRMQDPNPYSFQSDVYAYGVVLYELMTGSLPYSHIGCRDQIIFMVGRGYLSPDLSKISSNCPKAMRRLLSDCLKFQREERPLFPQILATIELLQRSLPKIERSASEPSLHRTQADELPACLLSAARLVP
UniProt O14965: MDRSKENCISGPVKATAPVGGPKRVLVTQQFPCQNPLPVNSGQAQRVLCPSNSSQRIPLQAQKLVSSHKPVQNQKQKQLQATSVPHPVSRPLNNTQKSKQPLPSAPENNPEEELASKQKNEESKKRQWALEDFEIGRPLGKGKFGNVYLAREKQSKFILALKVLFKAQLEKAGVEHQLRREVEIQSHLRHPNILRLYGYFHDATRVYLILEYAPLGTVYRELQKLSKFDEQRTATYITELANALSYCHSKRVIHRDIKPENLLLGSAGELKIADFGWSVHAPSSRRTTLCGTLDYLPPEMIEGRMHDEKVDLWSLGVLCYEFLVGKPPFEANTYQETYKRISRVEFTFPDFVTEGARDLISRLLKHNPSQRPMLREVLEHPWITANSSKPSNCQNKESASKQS
UniProt Q9UQB9: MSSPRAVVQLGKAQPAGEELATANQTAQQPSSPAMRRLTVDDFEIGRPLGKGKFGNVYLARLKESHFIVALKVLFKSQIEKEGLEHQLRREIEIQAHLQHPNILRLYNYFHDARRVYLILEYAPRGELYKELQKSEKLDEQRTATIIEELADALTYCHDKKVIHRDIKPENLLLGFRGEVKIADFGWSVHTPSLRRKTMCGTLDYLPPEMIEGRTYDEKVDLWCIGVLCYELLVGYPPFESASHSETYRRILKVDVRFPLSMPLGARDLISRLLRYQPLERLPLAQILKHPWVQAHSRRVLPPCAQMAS
UniProt P51813: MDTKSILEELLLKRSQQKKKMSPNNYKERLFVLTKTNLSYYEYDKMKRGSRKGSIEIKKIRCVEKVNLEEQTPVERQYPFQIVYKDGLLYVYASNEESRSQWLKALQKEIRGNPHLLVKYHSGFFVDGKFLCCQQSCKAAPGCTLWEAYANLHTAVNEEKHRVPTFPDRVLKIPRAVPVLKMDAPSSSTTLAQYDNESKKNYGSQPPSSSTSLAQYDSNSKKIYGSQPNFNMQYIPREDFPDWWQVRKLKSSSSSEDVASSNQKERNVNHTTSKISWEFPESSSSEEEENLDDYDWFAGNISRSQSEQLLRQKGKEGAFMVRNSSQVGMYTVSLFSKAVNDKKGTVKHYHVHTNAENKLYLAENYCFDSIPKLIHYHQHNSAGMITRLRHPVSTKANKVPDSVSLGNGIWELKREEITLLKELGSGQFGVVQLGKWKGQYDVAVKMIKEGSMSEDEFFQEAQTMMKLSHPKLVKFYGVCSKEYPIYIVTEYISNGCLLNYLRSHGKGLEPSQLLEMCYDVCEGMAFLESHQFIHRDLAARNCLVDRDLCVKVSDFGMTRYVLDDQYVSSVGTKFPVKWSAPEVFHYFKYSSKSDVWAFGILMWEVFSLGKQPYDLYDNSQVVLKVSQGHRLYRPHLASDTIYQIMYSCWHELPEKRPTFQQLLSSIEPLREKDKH
UniProt Q06187: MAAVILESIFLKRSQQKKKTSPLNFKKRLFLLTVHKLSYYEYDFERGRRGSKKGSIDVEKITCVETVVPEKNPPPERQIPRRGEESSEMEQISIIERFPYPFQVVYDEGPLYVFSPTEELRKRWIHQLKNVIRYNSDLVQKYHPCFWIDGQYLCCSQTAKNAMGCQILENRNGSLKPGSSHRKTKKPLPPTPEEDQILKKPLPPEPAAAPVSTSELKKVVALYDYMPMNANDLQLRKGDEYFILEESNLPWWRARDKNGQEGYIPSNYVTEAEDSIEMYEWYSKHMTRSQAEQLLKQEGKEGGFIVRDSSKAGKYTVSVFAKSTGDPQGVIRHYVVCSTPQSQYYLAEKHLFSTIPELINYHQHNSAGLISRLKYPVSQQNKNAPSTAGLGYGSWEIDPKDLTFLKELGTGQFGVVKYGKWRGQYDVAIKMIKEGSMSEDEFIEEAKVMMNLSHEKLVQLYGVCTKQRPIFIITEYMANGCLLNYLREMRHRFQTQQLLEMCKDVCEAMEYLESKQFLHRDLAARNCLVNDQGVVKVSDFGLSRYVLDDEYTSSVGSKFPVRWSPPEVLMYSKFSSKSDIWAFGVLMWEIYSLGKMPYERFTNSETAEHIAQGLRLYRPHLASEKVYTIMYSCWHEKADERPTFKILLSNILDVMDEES
UniProt Q9UQM7, whole entry: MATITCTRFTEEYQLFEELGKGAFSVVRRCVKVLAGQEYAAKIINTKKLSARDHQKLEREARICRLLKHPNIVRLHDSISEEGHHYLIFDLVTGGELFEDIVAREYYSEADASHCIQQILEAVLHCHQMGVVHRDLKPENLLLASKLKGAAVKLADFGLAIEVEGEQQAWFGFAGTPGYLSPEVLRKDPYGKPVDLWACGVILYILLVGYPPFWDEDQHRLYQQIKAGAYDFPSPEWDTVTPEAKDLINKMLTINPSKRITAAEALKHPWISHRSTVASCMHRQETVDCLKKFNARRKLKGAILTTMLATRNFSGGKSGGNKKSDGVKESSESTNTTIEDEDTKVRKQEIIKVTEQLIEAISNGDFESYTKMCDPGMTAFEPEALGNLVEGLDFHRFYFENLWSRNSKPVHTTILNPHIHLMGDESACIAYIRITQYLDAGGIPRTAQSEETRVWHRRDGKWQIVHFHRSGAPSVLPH
UniProt Q13555: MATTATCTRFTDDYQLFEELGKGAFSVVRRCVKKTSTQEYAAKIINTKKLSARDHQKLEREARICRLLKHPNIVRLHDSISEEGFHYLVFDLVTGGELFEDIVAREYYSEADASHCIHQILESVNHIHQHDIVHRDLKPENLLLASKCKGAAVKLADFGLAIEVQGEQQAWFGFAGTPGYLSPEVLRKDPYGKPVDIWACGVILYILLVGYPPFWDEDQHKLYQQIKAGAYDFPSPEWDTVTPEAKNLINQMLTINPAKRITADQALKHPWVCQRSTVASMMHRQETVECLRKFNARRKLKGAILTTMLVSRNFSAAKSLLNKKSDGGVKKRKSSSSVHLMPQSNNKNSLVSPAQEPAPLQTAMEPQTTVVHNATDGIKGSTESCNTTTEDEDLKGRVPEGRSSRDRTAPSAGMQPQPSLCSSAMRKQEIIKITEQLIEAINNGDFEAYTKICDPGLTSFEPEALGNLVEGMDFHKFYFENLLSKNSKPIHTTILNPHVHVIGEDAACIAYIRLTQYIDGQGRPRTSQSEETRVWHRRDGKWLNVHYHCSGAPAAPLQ
UniProt Q15131: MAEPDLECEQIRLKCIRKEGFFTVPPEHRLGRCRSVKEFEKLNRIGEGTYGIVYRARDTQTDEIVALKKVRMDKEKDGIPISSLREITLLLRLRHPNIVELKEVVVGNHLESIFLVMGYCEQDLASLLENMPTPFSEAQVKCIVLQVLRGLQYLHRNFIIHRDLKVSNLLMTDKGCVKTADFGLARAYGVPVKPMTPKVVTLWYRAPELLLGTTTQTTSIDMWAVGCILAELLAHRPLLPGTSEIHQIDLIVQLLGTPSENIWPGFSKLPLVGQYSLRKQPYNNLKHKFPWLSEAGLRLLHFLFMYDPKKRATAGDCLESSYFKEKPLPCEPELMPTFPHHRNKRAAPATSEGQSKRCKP
UniProt Q00526: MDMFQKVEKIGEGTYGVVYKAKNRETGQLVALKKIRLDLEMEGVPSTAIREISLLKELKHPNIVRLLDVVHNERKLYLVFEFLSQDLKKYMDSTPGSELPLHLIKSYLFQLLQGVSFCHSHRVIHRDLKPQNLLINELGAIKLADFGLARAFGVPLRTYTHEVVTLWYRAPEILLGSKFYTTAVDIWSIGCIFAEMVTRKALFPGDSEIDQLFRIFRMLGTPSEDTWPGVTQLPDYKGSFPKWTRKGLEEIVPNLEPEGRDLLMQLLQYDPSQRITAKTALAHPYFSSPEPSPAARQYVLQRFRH
UniProt P11802: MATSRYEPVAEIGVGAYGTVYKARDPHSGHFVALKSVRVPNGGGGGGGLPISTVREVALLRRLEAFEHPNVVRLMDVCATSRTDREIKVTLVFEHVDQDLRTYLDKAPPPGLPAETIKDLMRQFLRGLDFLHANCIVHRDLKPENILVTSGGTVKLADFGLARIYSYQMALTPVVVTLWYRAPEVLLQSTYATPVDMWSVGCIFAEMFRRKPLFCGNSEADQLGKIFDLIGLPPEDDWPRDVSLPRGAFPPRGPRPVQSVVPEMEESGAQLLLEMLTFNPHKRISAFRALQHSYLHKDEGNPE
UniProt Q00535, whole entry, looked up: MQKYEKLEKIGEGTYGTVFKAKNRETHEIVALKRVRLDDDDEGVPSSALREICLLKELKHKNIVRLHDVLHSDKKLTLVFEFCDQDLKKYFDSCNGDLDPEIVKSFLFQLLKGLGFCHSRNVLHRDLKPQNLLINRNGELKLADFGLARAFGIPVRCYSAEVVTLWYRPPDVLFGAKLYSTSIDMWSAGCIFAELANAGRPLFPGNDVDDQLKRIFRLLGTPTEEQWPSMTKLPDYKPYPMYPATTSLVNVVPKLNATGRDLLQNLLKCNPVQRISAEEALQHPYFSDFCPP
UniProt Q00534, whole entry: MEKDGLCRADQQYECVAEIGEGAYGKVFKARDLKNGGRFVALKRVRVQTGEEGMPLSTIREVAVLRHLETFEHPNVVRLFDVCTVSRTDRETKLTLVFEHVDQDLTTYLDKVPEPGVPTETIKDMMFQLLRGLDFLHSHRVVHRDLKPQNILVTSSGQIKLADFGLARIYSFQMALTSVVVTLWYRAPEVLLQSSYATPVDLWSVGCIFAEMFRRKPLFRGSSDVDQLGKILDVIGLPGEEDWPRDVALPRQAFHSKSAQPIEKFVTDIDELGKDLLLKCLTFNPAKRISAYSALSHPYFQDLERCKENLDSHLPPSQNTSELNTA

What was measured:
Assay in all cases: kinase-Nluc reporter destabilization hit call (1 = scored as downregulated) (binary); higher = compound decreases kinase abundance
Conditions in all cases: K562; 2-18 h
[1] = target: ABL1 (UniProt P00519)
[2] = target: AKT1 (UniProt P31749)
[3] = target: ALK (UniProt Q9UM73)
[4] = target: ARAF (UniProt P10398)
[5] = target: AURKA (UniProt O14965)
[6] = target: AURKB (UniProt Q96GD4)
[7] = target: AURKC (UniProt Q9UQB9)
[8] = target: BLK (UniProt P51451)
[9] = target: BMX (UniProt P51813)
[10] = target: BRAF (UniProt P15056)
[11] = test system: BRAF_V600E
[12] = target: BTK (UniProt Q06187)
[13] = target: CAMK2A (UniProt Q9UQM7)
[14] = target: CAMK2G (UniProt Q13555)
[15] = target: CDK10 (UniProt Q15131)
[16] = target: CDK2 (UniProt P24941)
[17] = target: CDK3 (UniProt Q00526)
[18] = target: CDK4 (UniProt P11802)
[19] = target: CDK5 (UniProt Q00535)
[20] = target: CDK6 (UniProt Q00534)

Measured: kinase-Nluc reporter destabilization hit call

COc1cc(OC)cc(N(CCNC(C)C)c2ccc3ncc(-c4cnn(C)c4)nc3c2)c1 [Erdafitinib] (2.5 µM)
inactive: [1] 0 | [2] 0 | [3] 0 | [4] 0 | [5] 0 | [6] 0 | [7] 0 | [8] 0 | [9] 0 | [10] 0 | [11] 0 | [12] 0 | [13] 0 | [14] 0 | [15] 0 | [16] 0 | [17] 0 | [18] 0 | [19] 0 | [20] 0

COc1cc2c(Nc3ccc(Br)cc3F)ncnc2cc1OCCn1ccnn1 (10 µM)
inactive: [1] 0 | [2] 0 | [3] 0 | [4] 0 | [5] 0 | [6] 0 | [7] 0 | [8] 0 | [9] 0 | [10] 0 | [11] 0 | [12] 0 | [13] 0 | [14] 0 | [15] 0 | [16] 0 | [17] 0 | [18] 0 | [19] 0 | [20] 0

Cc1c(C(=O)N2CCOc3ccc(-c4ccc(N)nc4)cc3C2)ccc(S(C)(=O)=O)c1F (10 µM)
active: [1] 1
inactive: [2] 0 | [3] 0 | [4] 0 | [5] 0 | [6] 0 | [7] 0 | [8] 0 | [9] 0 | [10] 0 | [11] 0 | [12] 0 | [13] 0 | [14] 0 | [15] 0 | [16] 0 | [17] 0 | [18] 0 | [19] 0 | [20] 0

Cn1c(=O)c(Oc2ccc(F)cc2F)cc2cnc(NC3CCOCC3)nc21 [R1487 (Hydrochloride)] (10 µM)
inactive: [1] 0 | [2] 0 | [3] 0 | [4] 0 | [5] 0 | [6] 0 | [7] 0 | [8] 0 | [9] 0 | [10] 0 | [11] 0 | [12] 0 | [13] 0 | [14] 0 | [15] 0 | [16] 0 | [17] 0 | [18] 0 | [19] 0 | [20] 0

N#C/C(=C\c1ccc(O)c(O)c1)C(=O)NCc1ccccc1 (10 µM)
inactive: [1] 0 | [2] 0 | [3] 0 | [4] 0 | [5] 0 | [6] 0 | [7] 0 | [8] 0 | [9] 0 | [10] 0 | [11] 0 | [12] 0 | [13] 0 | [14] 0 | [15] 0 | [16] 0 | [17] 0 | [18] 0 | [19] 0 | [20] 0

CC(=O)N1CCN(c2ccc(OCC3COC(Cn4ccnc4)(c4ccc(Cl)cc4Cl)O3)cc2)CC1 (stereo not given) [Ketoconazole] (2.5 µM)
inactive: [1] 0 | [2] 0 | [3] 0 | [4] 0 | [5] 0 | [6] 0 | [7] 0 | [8] 0 | [9] 0 | [10] 0 | [11] 0 | [12] 0 | [13] 0 | [14] 0 | [15] 0 | [16] 0 | [17] 0 | [18] 0 | [19] 0 | [20] 0

O=c1cc(N2CCOCC2)oc2c(-c3ccccc3)cccc12 (10 µM)
inactive: [1] 0 | [2] 0 | [3] 0 | [4] 0 | [5] 0 | [6] 0 | [7] 0 | [8] 0 | [9] 0 | [10] 0 | [11] 0 | [12] 0 | [13] 0 | [14] 0 | [15] 0 | [16] 0 | [17] 0 | [18] 0 | [19] 0 | [20] 0

COc1ccc2c(NC(=O)Nc3cccc(C(F)(F)F)n3)ccnc2c1 (10 µM)
inactive: [1] 0 | [2] 0 | [3] 0 | [4] 0 | [5] 0 | [6] 0 | [7] 0 | [8] 0 | [9] 0 | [10] 0 | [11] 0 | [12] 0 | [13] 0 | [14] 0 | [15] 0 | [16] 0 | [17] 0 | [18] 0 | [19] 0 | [20] 0

CC(C)n1cnc2c(NCc3cccc(C(F)(F)F)c3)ncnc21 [Longdaysin] (10 µM)
inactive: [1] 0 | [2] 0 | [3] 0 | [4] 0 | [5] 0 | [6] 0 | [7] 0 | [8] 0 | [9] 0 | [10] 0 | [11] 0 | [12] 0 | [13] 0 | [14] 0 | [15] 0 | [16] 0 | [17] 0 | [18] 0 | [19] 0 | [20] 0

COc1cc(Nc2ncc3c(n2)-c2ccc(Cl)cc2C(c2c(F)cccc2OC)=NC3)ccc1C(=O)O [Alisertib] (2.5 µM)
inactive: [1] 0 | [2] 0 | [3] 0 | [4] 0 | [5] 0 | [6] 0 | [7] 0 | [8] 0 | [9] 0 | [10] 0 | [11] 0 | [12] 0 | [13] 0 | [14] 0 | [15] 0 | [16] 0 | [17] 0 | [18] 0 | [19] 0 | [20] 0

C[C@H](CN(C)C)Oc1nc(Nc2cc3cccc(Cl)c3cn2)cnc1C#N (10 µM)
inactive: [1] 0 | [2] 0 | [3] 0 | [4] 0 | [5] 0 | [6] 0 | [7] 0 | [8] 0 | [9] 0 | [10] 0 | [11] 0 | [12] 0 | [13] 0 | [14] 0 | [15] 0 | [16] 0 | [17] 0 | [18] 0 | [19] 0 | [20] 0

COc1c(CC=C(C)C)c(O)cc2oc(=O)c(-c3ccc(O)cc3O)cc12 [Glycycoumarin] (10 µM)
inactive: [1] 0 | [2] 0 | [3] 0 | [4] 0 | [5] 0 | [6] 0 | [7] 0 | [8] 0 | [9] 0 | [10] 0 | [11] 0 | [12] 0 | [13] 0 | [14] 0 | [15] 0 | [16] 0 | [17] 0 | [18] 0 | [19] 0 | [20] 0

CNc1nc(-c2ccc3c(N)n[nH]c3c2)cc(N2C[C@@H](C(=O)NC3CCCCC3)CC[C@H]2C)n1 (10 µM)
inactive: [1] 0 | [2] 0 | [3] 0 | [4] 0 | [5] 0 | [6] 0 | [7] 0 | [8] 0 | [9] 0 | [10] 0 | [11] 0 | [12] 0 | [13] 0 | [14] 0 | [15] 0 | [16] 0 | [17] 0 | [18] 0 | [19] 0 | [20] 0

C=CC(=O)Nc1cccc(Nc2nc(Nc3ccc(OCCOC)cc3)ncc2F)c1 [Spebrutinib] (10 µM)
inactive: [1] 0 | [2] 0 | [3] 0 | [4] 0 | [5] 0 | [6] 0 | [7] 0 | [8] 0 | [9] 0 | [10] 0 | [11] 0 | [12] 0 | [13] 0 | [14] 0 | [15] 0 | [16] 0 | [17] 0 | [18] 0 | [19] 0 | [20] 0

COc1cc(N2CCC(N)CC2)ccc1Nc1ncc(Cl)c(-c2c[nH]c3ccccc23)n1 (2.5 µM)
inactive: [1] 0 | [2] 0 | [3] 0 | [4] 0 | [5] 0 | [6] 0 | [7] 0 | [8] 0 | [9] 0 | [10] 0 | [11] 0 | [12] 0 | [13] 0 | [14] 0 | [15] 0 | [16] 0 | [17] 0 | [18] 0 | [19] 0 | [20] 0

CN1CCN(C2CCN(C(=O)Nc3cc(Oc4ccc(NC(=O)C5(C(=O)Nc6ccc(F)cc6)CC5)c(F)c4)ccn3)CC2)CC1 [Golvatinib] (2.5 µM)
inactive: [1] 0 | [2] 0 | [3] 0 | [4] 0 | [5] 0 | [6] 0 | [7] 0 | [8] 0 | [9] 0 | [10] 0 | [11] 0 | [12] 0 | [13] 0 | [14] 0 | [15] 0 | [16] 0 | [17] 0 | [18] 0 | [19] 0 | [20] 0

Sorted by length of the SMILES (smallest number first): three of the compounds above
COc1c(CC=C(C)C)c(O)cc2oc(=O)c(-c3ccc(O)cc3O)cc12 [Glycycoumarin] (10 µM)
inactive: [1] 0 | [2] 0 | [3] 0 | [4] 0 | [5] 0 | [6] 0 | [7] 0 | [8] 0 | [9] 0 | [10] 0 | [11] 0 | [12] 0 | [13] 0 | [14] 0 | [15] 0 | [16] 0 | [17] 0 | [18] 0 | [19] 0 | [20] 0

COc1cc(N2CCC(N)CC2)ccc1Nc1ncc(Cl)c(-c2c[nH]c3ccccc23)n1 (2.5 µM)
inactive: [1] 0 | [2] 0 | [3] 0 | [4] 0 | [5] 0 | [6] 0 | [7] 0 | [8] 0 | [9] 0 | [10] 0 | [11] 0 | [12] 0 | [13] 0 | [14] 0 | [15] 0 | [16] 0 | [17] 0 | [18] 0 | [19] 0 | [20] 0

CNc1nc(-c2ccc3c(N)n[nH]c3c2)cc(N2C[C@@H](C(=O)NC3CCCCC3)CC[C@H]2C)n1 (10 µM)
inactive: [1] 0 | [2] 0 | [3] 0 | [4] 0 | [5] 0 | [6] 0 | [7] 0 | [8] 0 | [9] 0 | [10] 0 | [11] 0 | [12] 0 | [13] 0 | [14] 0 | [15] 0 | [16] 0 | [17] 0 | [18] 0 | [19] 0 | [20] 0

Remaining list, next part:

COc1cc(OC)c(F)c(COc2cnc(Nc3cnn(CCO)c3)nc2)c1F (2.5 µM)
inactive: [1] 0 | [2] 0 | [3] 0 | [4] 0 | [5] 0 | [6] 0 | [7] 0 | [8] 0 | [9] 0 | [10] 0 | [11] 0 | [12] 0 | [13] 0 | [14] 0 | [15] 0 | [16] 0 | [17] 0 | [18] 0 | [19] 0 | [20] 0

Cc1nc(-c2cnc(NC(C)C)n(C)c2=O)ccc1Oc1ccnc(-c2cnn(C)c2)c1 (2.5 µM)
inactive: [1] 0 | [2] 0 | [3] 0 | [4] 0 | [5] 0 | [6] 0 | [7] 0 | [8] 0 | [9] 0 | [10] 0 | [11] 0 | [12] 0 | [13] 0 | [14] 0 | [15] 0 | [16] 0 | [17] 0 | [18] 0 | [19] 0 | [20] 0
